{"source": "patent US20140050677A1", "about": "“Personal care and medicinal products incorporating bound organosulfur groups” (priority 2006, published 2014)", "origin": "cited, not measured here", "conditions_in_all_cases": "cited from earlier work", "key": {"papain": {"biological_target": "T1, papain (Carica papaya, UniProt P00784)", "T1 sequence (P00784 134-345)": "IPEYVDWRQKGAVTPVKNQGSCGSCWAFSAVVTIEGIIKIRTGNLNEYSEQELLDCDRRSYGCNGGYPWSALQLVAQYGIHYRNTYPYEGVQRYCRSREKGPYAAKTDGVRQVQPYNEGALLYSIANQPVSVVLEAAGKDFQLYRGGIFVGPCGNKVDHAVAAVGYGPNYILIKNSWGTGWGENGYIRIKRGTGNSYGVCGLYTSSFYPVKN"}, "common cold": {"test_system": "common cold"}, "bacterial RNA synthesis": {"test_system": "bacterial RNA synthesis"}, "[1]": {"test_system": "enzymes involved with microbial replication"}}, "note": "At least one compound was matched to its structure with a doubt left.", "data": [{"smiles": "C=CCS[S+]([O-])CC=C", "note": "(centres unmarked) [Allicin, DiAllylThioSulfinate]", "values": [{"measurement": "remaining papain activity, % of its initial activity", "setting": "papain", "result": 1, "unit": "%"}, {"measurement": "incidence of infection during the clinical trial", "setting": "common cold; placebo group 65", "result": 24}, {"measurement": "average duration of symptoms", "setting": "common cold; placebo group 5 days", "result": 1.5, "unit": "days"}, {"measurement": "rate of bacterial RNA synthesis, % of that of control cells", "setting": "bacterial RNA synthesis", "result": "below 1%"}, {"measurement": "enzyme inhibition effectiveness relative to other common SH reagents", "setting": "[1]", "result": "approximately 100 ×"}]}]}
